The list shows a part of the results.
Compound: CC1Cc2ccccc2N1C(=O)C1CCCN(C1)C(=O)CCl (mixture of isomers) [TRIM25 ligand 11 (diastereomer mixture)]
Experiment: probe-labelled cysteine peptide fold change vs DMSO (competition) (log2 fold change); higher = less target engagement (more negative = stronger competition)
Conditions: THP-1, incubation time: 4 h
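Further: competitive chemoproteomic profiling in live THP-1 cells with an iodoacetamide desthiobiotin (IA-DTB) probe, comparing probe-labelled peptide intensities in compound-treated cells against DMSO-treated controls.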

Chains of the proteins cited; added tags and fusions are not shown. Lines headed by an entry give the natural chain unless they say otherwise; changes in a name come on top.
UniProt Q9NZB2: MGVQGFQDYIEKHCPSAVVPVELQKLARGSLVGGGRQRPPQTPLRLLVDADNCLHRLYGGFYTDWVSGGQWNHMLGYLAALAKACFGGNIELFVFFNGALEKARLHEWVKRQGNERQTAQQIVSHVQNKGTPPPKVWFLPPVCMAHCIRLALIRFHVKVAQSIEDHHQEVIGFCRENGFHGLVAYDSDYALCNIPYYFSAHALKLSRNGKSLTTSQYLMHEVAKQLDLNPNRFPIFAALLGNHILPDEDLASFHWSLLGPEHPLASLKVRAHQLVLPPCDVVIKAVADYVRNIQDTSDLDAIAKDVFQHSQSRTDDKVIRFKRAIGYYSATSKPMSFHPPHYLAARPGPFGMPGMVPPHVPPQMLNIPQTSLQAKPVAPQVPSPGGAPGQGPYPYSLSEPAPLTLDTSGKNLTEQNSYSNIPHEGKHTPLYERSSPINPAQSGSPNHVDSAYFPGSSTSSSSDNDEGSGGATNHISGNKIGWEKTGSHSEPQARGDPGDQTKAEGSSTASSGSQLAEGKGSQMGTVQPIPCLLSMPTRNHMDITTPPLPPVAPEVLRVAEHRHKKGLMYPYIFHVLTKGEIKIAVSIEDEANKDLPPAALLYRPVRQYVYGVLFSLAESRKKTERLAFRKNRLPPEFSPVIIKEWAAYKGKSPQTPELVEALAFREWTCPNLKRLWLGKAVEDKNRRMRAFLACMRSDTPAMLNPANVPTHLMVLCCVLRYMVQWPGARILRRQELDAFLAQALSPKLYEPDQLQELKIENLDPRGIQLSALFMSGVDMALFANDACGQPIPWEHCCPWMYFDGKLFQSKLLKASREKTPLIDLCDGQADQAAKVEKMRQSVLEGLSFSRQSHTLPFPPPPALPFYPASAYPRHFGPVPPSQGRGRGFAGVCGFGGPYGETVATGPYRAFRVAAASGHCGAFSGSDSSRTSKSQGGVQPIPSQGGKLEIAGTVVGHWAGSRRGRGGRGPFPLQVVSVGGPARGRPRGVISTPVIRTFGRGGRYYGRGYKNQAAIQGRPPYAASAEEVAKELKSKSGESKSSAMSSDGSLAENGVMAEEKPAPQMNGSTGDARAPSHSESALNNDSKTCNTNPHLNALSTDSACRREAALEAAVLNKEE
UniProt Q9Y3B2, whole entry, looked up: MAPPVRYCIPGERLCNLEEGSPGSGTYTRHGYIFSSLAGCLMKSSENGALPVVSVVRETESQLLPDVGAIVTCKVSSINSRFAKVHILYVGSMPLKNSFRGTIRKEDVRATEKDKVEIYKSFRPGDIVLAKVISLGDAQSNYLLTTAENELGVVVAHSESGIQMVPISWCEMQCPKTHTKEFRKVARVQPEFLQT
UniProt Q96EK7: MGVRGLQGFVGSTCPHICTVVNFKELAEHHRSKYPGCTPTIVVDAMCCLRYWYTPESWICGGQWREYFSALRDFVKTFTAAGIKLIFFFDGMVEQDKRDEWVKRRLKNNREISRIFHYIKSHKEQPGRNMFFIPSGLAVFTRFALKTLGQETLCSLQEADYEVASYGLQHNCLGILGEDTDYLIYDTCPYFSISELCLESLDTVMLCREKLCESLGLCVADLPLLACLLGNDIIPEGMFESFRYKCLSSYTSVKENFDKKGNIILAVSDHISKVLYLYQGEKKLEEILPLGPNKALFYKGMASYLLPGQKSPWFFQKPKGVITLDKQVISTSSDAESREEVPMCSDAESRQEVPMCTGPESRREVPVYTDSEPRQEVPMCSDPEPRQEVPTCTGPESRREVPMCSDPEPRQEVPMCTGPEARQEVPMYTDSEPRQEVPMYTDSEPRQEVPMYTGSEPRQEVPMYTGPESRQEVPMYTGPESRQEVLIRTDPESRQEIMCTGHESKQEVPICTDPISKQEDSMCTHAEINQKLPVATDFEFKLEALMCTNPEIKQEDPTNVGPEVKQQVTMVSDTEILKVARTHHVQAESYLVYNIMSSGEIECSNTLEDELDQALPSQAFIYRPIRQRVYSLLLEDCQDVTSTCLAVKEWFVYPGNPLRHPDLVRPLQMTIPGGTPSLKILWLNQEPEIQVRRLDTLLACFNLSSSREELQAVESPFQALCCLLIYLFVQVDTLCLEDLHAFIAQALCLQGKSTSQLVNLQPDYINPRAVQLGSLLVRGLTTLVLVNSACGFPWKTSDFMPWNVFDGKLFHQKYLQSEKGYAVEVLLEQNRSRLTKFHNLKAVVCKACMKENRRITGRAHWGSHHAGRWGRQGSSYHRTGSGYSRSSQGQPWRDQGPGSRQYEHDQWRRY
UniProt Q5T8I3: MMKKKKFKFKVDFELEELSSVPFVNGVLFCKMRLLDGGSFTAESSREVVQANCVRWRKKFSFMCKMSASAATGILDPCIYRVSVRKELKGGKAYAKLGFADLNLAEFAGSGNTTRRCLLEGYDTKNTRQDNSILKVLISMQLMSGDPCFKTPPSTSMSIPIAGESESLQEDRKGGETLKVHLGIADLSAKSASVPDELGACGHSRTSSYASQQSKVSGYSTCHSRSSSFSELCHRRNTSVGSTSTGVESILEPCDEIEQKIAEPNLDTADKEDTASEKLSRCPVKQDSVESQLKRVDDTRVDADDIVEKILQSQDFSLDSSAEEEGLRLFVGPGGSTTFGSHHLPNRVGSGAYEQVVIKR
UniProt Q9NRY5: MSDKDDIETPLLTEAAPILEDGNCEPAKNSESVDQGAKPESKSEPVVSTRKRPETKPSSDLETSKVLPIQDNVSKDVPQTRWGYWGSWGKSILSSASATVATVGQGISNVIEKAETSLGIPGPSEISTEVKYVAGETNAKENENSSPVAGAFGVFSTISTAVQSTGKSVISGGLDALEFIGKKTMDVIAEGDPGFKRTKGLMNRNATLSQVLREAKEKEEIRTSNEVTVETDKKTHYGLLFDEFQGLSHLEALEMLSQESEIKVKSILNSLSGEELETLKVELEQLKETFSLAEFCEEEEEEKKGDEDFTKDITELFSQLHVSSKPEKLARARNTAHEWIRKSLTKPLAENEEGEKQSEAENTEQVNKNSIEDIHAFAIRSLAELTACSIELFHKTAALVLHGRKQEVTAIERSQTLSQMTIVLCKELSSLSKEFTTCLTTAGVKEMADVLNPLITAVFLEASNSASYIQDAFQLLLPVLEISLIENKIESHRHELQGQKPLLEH
UniProt P16930: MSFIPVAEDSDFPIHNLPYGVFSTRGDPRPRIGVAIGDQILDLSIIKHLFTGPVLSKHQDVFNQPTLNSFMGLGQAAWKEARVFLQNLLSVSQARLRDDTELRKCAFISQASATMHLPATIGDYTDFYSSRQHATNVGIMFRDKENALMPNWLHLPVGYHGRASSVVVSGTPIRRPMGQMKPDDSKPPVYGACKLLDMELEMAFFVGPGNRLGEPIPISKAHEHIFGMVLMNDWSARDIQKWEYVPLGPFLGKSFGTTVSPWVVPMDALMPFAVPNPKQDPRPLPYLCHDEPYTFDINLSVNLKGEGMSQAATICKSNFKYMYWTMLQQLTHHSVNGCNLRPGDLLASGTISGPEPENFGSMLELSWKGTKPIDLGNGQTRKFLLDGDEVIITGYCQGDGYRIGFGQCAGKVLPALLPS
UniProt P84090, whole entry, looked up: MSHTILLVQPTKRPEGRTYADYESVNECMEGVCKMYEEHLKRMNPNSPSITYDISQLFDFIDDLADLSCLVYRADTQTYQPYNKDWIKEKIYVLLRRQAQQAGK
UniProt Q9BS26: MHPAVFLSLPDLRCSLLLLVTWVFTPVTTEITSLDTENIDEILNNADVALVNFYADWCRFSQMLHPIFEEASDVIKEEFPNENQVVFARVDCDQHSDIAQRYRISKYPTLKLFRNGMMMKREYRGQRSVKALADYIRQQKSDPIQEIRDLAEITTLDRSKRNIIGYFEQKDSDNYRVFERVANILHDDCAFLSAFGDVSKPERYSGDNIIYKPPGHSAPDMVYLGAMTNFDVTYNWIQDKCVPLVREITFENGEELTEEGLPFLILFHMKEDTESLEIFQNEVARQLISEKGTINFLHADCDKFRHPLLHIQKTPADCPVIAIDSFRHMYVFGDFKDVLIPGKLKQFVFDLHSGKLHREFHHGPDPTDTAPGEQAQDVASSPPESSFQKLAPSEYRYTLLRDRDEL
UniProt Q01469, whole entry, looked up: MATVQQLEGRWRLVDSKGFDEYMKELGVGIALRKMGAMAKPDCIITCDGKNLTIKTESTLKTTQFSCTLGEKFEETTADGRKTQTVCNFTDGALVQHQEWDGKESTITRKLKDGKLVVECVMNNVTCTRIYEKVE
UniProt Q06265, whole entry, looked up: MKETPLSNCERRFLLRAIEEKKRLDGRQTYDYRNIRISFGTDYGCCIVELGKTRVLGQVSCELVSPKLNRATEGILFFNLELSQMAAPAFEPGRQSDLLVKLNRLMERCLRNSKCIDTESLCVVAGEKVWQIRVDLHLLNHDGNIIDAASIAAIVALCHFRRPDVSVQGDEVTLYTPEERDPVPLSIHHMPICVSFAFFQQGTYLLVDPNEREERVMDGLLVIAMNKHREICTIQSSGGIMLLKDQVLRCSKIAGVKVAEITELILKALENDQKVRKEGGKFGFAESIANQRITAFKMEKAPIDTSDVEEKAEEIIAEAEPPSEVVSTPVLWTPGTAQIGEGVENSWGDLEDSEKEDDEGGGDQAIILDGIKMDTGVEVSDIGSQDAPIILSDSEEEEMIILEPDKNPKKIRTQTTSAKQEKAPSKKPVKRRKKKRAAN
UniProt O00471: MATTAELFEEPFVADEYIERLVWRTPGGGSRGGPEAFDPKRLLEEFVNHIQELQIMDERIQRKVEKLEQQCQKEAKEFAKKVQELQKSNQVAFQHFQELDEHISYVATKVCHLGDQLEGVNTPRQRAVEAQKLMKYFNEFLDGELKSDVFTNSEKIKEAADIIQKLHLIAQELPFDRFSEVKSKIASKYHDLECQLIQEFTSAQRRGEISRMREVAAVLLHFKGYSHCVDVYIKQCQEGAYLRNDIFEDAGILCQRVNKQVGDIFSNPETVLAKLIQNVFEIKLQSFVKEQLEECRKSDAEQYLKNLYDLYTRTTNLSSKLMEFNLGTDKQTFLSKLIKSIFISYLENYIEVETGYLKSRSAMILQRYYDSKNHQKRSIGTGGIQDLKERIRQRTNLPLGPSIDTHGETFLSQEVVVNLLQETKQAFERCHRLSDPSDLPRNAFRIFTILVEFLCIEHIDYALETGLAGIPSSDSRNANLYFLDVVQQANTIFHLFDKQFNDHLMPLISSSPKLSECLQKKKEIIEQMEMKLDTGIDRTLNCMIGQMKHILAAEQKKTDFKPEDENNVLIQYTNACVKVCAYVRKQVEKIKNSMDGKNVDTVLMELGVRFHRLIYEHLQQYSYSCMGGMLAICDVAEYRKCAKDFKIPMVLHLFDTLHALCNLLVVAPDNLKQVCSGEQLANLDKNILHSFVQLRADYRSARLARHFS
UniProt P10768: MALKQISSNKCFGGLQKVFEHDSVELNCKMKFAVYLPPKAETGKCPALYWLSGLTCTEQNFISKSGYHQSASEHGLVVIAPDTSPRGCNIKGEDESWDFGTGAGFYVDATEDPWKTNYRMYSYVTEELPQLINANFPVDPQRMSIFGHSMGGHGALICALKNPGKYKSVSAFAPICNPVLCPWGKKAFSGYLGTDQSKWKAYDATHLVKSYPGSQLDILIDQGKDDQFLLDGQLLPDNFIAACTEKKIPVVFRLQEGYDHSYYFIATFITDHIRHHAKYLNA
UniProt P38117: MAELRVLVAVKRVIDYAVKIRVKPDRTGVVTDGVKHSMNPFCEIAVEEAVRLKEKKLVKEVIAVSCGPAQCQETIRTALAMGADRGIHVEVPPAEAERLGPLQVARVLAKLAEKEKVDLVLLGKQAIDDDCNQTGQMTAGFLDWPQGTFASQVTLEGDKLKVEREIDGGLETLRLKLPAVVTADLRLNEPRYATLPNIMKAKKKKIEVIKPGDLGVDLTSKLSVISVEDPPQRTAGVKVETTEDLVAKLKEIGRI
UniProt Q15024, whole entry, looked up: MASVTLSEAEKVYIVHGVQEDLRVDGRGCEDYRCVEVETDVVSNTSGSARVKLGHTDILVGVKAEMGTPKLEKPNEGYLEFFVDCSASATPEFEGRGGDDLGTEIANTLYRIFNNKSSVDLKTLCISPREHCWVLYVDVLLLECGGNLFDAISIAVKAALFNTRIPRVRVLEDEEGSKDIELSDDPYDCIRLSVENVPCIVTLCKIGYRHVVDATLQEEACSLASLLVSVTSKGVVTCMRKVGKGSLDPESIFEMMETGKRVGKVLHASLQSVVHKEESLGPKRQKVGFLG
UniProt Q86YB8: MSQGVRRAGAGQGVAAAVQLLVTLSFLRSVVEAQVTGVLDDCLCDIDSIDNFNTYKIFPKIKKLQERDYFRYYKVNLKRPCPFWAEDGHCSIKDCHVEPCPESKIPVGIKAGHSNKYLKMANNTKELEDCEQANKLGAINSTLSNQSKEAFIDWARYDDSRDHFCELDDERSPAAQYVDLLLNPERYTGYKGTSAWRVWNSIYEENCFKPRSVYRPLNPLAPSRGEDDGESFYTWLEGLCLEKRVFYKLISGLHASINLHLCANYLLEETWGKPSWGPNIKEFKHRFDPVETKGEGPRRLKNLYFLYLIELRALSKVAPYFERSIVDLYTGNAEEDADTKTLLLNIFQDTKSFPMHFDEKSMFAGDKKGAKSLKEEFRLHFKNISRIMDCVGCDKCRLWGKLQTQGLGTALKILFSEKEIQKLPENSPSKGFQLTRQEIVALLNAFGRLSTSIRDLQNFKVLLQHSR

Target	probe-labelled cysteine peptide fold change (10 µM)	probe-labelled cysteine peptide fold change (50 µM)
FAM120A_Q9NZB2_192_ENGFHGLVAYDSDYALCNIPYYFSAHALK (UniProt Q9NZB2)	-0.0966	-0.0728
ETV6_P41212_157_ILFSPFFHPGNSIHTQPEVILHQNHEEDNCVQR (UniProt P41212)	0.0671	0.132
EXT2_Q93063_85_LPADSPIPERGDLSCR (UniProt Q93063)	-0.113	0.0474
EXOSC3_Q9NQT5_257_TIQQTLILANILEACEHMTSDQRK (UniProt Q9NQT5)	0.147	0.000894
EXOC7_Q9UPT5_83_TLSCLDHVISYYHVASDTEK (UniProt Q9UPT5)	0.0152	-0.177
EXOSC1_Q9Y3B2_15_LCNLEEGSPGSGTYTR (UniProt Q9Y3B2)	0.0101	0.121
FAM120B_Q96EK7_511_QEVPICTDPISK (UniProt Q96EK7)	0.151	-0.0572
F2_P00734_564_RGDACEGDSGGPFVMK (UniProt P00734)	0.606	0.325
FAM102B_Q5T8I3_64_FSFMCK (UniProt Q5T8I3)	0.0741	0.225
FAM120B_Q96EK7_700_RLDTLLACFNLSSSR (UniProt Q96EK7)	0.111	0.00986
EZH2_Q15910_324_NTETALDNKPCGPQCYQHLEGAK (UniProt Q15910)	-0.0466	0.0993
FAM114A2_Q9NRY5_388_SLAELTACSIELFHK (UniProt Q9NRY5)	0.0896	0.101
ETFDH_Q16134_248_VTIFAEGCHGHLAK (UniProt Q16134)	0.0429	0.154
FAH_P16930_105_CAFISQASATMHLPATIGDYTDFYSSR (UniProt P16930)	-0.0585	-0.0821
EXTL3_O43909_400_LDQVLVEFTCK (UniProt O43909)	0.0434	0.174
ERGIC1_Q969X5_115_IPLNNGAGCR (UniProt Q969X5)	0.0435	0.0866
F2_P00734_129_SGIECQLWR (UniProt P00734)	0.468	0.193
ERH_P84090_28_TYADYESVNECMEGVCK (UniProt P84090)	-0.395	-0.212
ERGIC3_Q9Y282_155_CCNTCEDVR (UniProt Q9Y282)	0.507	-0.197
ERP44_Q9BS26_92_VDCDQHSDIAQR (UniProt Q9BS26)	0.0242	0.118
ERP44_Q9BS26_318_TPADCPVIAIDSFR (UniProt Q9BS26)	-0.0103	0.0027

Target	probe-labelled cysteine peptide fold change (10 µM)	probe-labelled cysteine peptide fold change (50 µM)
FABP5_Q01469_47_MGAMAKPDCIITCDGK (UniProt Q01469)	-0.0819	-0.168
ERCC3_P19447_390_MWSTIDDSQICR (UniProt P19447)	0.0351	0.0856
ERP44_Q9BS26_189_VANILHDDCAFLSAFGDVSK (UniProt Q9BS26)	-0.259	0.212
EXOSC8_Q96B26_251_LQDCMSR (UniProt Q96B26)	-0.298	-0.0527
EXOC8_Q8IYI6_211_VHGFLMNDCLLVATWLPQR (UniProt Q8IYI6)	0.0221	-0.00217
ERLEC1_Q96DZ1_421_MVSHFYGNGDICDITDKPR (UniProt Q96DZ1)	0.0492	0.173
F2_P00734_407_WVLTAAHCLLYPPWDK (UniProt P00734)	0.631	0.154
EXOSC9_Q06265_61_VLGQVSCELVSPK (UniProt Q06265)	0.0724	0.318
EXOC1_Q9NV70_27_LLSIVNVCK (UniProt Q9NV70)	0.0577	-0.114
ESYT1_Q9BSJ8_995_KLVSIVHGCR (UniProt Q9BSJ8)	0.0752	-0.0351
FABP5_Q01469_67_TTQFSCTLGEK (UniProt Q01469)	-0.00176	0.0861
FAM122A_Q96E09_193_SQSPINCIRPSVLGPLK (UniProt Q96E09)	-0.26	-0.21
ETFDH_Q16134_589_LQINAQNCVHCK (UniProt Q16134)	0.13	0.0962
ERCC5_P28715_550_NETHAEVLEQQNELCPYESK (UniProt P28715)	-0.154	-0.474
ESCO2_Q56NI9_132_MQGKPVCSK (UniProt Q56NI9)	-0.148	-0.284
FAM120A_Q9NZB2_531_GSQMGTVQPIPCLLSMPTR (UniProt Q9NZB2)	-0.179	-0.199
EXOSC3_Q9NQT5_257_TIQQTLILANILEACEHMTSDQR (UniProt Q9NQT5)	0.115	0.0197
EXOC5_O00471_236_QCQEGAYLR (UniProt O00471)	0.0906	0.208
EXOSC10_Q01780_93_VMQYHGCR (UniProt Q01780)	-0.0603	-0.0302
ERMP1_Q7Z2K6_222_DGAQHAVLANCHFDSVANSPGASDDAVSCSVMLEVLR (UniProt Q7Z2K6)	0.537	0.318
EXOC6_Q8TAG9_532_TLSSCLLNLIR (UniProt Q8TAG9)	-0.0034	0.132

Target	probe-labelled cysteine peptide fold change (10 µM)	probe-labelled cysteine peptide fold change (50 µM)
ERO1A_Q96HE7_104_DCAVKPCQSDEVPDGIK (UniProt Q96HE7)	-0.0614	-0.103
FABP5_Q01469_87_KTQTVCNFTDGALVQHQEWDGK (UniProt Q01469)	-0.236	-0.168
FAM111B_Q6SJ93_183_QCENPNMECILFHVVAIGR (UniProt Q6SJ93)	0.00298	0.0622
ESD_P10768_158_MSIFGHSMGGHGALICALK (UniProt P10768)	-0.0198	-0.507
EXOC2_Q96KP1_388_WILQLMHSCK (UniProt Q96KP1)	-0.204	-0.28
ESD_P10768_176+181_SVSAFAPICNPVLCPWGK (UniProt P10768)	-0.0306	-0.166
EXD2_Q9NVH0_202_NNLLCNGLSLK (UniProt Q9NVH0)	0.113	-0.0313
EXOSC3_Q9NQT5_184_DMEPEMVCIDSCGR (UniProt Q9NQT5)	-0.0603	-0.242
EXOC5_O00471_517_LSECLQK (UniProt O00471)	-0.198	-0.101
ERO1A_Q96HE7_208_IWNVIYEENCFKPQTIK (UniProt Q96HE7)	-0.0676	0.0513
FAM114A2_Q9NRY5_438_EFTTCLTTAGVK (UniProt Q9NRY5)	0.0981	0.0759
ESCO2_Q56NI9_389_HFGATVCK (UniProt Q56NI9)	-0.00137	0.0314
ESD_P10768_181_SVSAFAPICNPVLCPWGK (UniProt P10768)	0.15	-0.151
ETFB_P38117_66+71_EVIAVSCGPAQCQETIR (UniProt P38117)	0.198	0.0442
ESD_P10768_28_VFEHDSVELNCK (UniProt P10768)	0.0669	-0.217
EXOC5_O00471_111_VCHLGDQLEGVNTPR (UniProt O00471)	-0.0403	0.0212
ERCC2_P18074_491_VCLCPMIIGR (UniProt P18074)	-0.29	-0.0667
EXOSC9_Q06265_9_ETPLSNCER (UniProt Q06265)	-0.104	-0.0793
ERH_P84090_28+33_TYADYESVNECMEGVCK (UniProt P84090)	-0.179	-0.359
FAM102B_Q5T8I3_222_VSGYSTCHSR (UniProt Q5T8I3)	0.0214	-0.118
EXOSC5_Q9NQT4_102_NTCEAVVLGTLHPR (UniProt Q9NQT4)	0.139	0.235

Target	probe-labelled cysteine peptide fold change (10 µM)	probe-labelled cysteine peptide fold change (50 µM)
ETHE1_O95571_219_LTLSCEEFVK (UniProt O95571)	-0.0343	-0.0479
EZH2_Q15910_286_EQSLHSFHTLFCR (UniProt Q15910)	0.0765	-0.00489
EXOC1_Q9NV70_304+314_GIEACTNAADALLQCMNVALRPGHDLLLAVK (UniProt Q9NV70)	0.235	0.018
FAM102B_Q5T8I3_254_RNTSVGSTSTGVESILEPCDEIEQK (UniProt Q5T8I3)	-0.0605	-0.127
EXOSC6_Q5RKV6_248_LGLEGCQR (UniProt Q5RKV6)	-0.00819	0.0459
FAM120B_Q96EK7_18_GLQGFVGSTCPHICTVVNFK (UniProt Q96EK7)	-0.00242	0.184
EXOC3_O60645_161_LMDLECSR (UniProt O60645)	-0.0155	-0.0768
EXOSC7_Q15024_189_VLEDEEGSKDIELSDDPYDCIR (UniProt Q15024)	-0.181	-0.152
ERO1B_Q86YB8_207_VWNSIYEENCFKPR (UniProt Q86YB8)	3.02e-05	0.108
ERBIN_Q96RT1_68_QLFNCQSLHK (UniProt Q96RT1)	0.0538	0.0456
ERO1A_Q96HE7_85_RPCPFWNDISQCGR (UniProt Q96HE7)	0.182	0.183
ESCO2_Q56NI9_392_SCGMIYTASNPEDEMQHVQHHHR (UniProt Q56NI9)	0.271	0.504
ETFB_P38117_66_EVIAVSCGPAQCQETIR (UniProt P38117)	-0.0186	0.0282
ERI1_Q8IV48_294_LGMDYDGRPHCGLDDSK (UniProt Q8IV48)	0.03	-0.0637
EXOSC7_Q15024_199_LSVENVPCIVTLCK (UniProt Q15024)	0.0305	0.0891
FAH_P16930_193_RPMGQMKPDDSKPPVYGACK (UniProt P16930)	-0.16	-0.224
FAF2_Q96CS3_349_KLECLPPEPSPDDPESVK (UniProt Q96CS3)	0.0122	-0.106
ERO1B_Q86YB8_130_ELEDCEQANK (UniProt Q86YB8)	-0.117	-0.152
EXOSC9_Q06265_158_VDLHLLNHDGNIIDAASIAAIVALCHFR (UniProt Q06265)	0.16	0.256
FAAP100_Q0VG06_309+311_TEPQAAEAAENFLPDEDVHCDCLVAFGHHGR (UniProt Q0VG06)	0.0559	-0.328
EXOC1_Q9NV70_837_HLCEEENLLQVVWHSMQDEFIR (UniProt Q9NV70)	0.233	-0.0301
